Some of the results follow. The main result of the screen is listed elsewhere. These columns were measured beside it and carry no call. Compounds called inactive in the main read-out are mostly missing here. The note in brackets gives the kind of curve behind each potency; many fits are weak.

This assay can be described thus: qHTS Assay for Lipid Storage Modulators in Drosophila S3 Cells.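 As to cell number change: cells counted by Cell Tracker Red CMTPX staining in the red channel.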 As to conditions: BODIPY lipid droplet fluorescence, 18-24 h; for cell number change: measured here: cell count max response, cells fed with added oleic acid. The essentials:
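Drosophila S3 cells loaded with oleic acid (400 uM, as added) and compounds at several concentrations; lipid droplets imaged by 488-nm laser-scanning cytometry, 500–530 nm intensity and object ratio to cell channel. Percent activity normalized to 20 uM Triacsin C.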
A general note: Quantitative high-throughput screening tests each substance at several concentrations.

[1] abbreviates: measured here: cell number channel AC50, cells fed with added oleic acid.
Setting [2] is: measured here: lipid fluorescence (Fed channel) AC50, cells fed with added oleic acid.

For the compound `CC(C)CC(=O)/C(=C\c1ccc(Cl)cc1Cl)n1cncn1`, the cell number change was -69%. Moreover, under setting [1], the AC50 – broadly, the midpoint of the concentration-response curve, whichever way the signal moves – was 18.4 µM [falling, partial curve]. Also, the AC50 under setting [2] is 9.2 µM [falling, partial curve].
With `COCCN(C(=O)Cc1cccs1)c1nnc(-c2ccncc2)s1`, the cell number change came out at 19.5%. Further, the AC50 under setting [2] was 0.731 µM [rising, single point].
In the case of `CC(C)c1ccc(S(=O)(=O)/N=C2/C=CC(=O)c3ccccc32)cc1`, the cell number change is 5.08%. Also, the AC50 under setting [1] is 6.51 µM [falling, single point]. In addition, under setting [2], the AC50 was 2.06 µM [falling, single point].
For the compound `O=C(OCC(=O)N1CCCC1)c1cc(Br)ccc1Cl`, the cell number change was found to be 3.94%. Further, under setting [2], the AC50 is 3.26 µM [falling, partial curve].
Regarding `CCOc1ccccc1C(=O)NCC(=O)OCCOc1cccc(Cl)c1`, the cell number change is 8.42%. For the same compound, the AC50 under setting [2] was 0.58 µM [falling, single point].
Consider `CCCCN(CCCC)CCNC(=O)c1cn(CC)c2ccc(S(=O)(=O)N(C)C3CCCCC3)cc2c1=O`, for which the cell number change turned out to be 8.78%. The AC50 under setting [2] was 11.6 µM [falling, single point].
Take `Cc1sc2nc[nH]c(=O)c2c1-c1ccc(Cl)cc1`: the cell number change was -7.14%. Also, the AC50 under setting [2] is 2.06 µM [falling, single point].
On to `COc1ccc(OCCN2CCN(C(=O)c3ccc(OC)cc3)CC2)cc1`, for which the cell number change is 8.33%. For the same compound, the AC50 under setting [2] was 0.58 µM [rising, single point].
With `c1ccc2c(c1)CC(CN1CCNCC1)O2` (stereo not given), the cell number change was 21.8%. In addition, under setting [2], the AC50 was 0.58 µM [falling, single point].
As to `O=C(Cn1cc([N+](=O)[O-])cn1)NC1CCCCCC1`, the cell number change stood at 2.86%. Under setting [2], the AC50 was 6.51 µM [falling, single point].
As to `O=C(Nc1sc2c(c1C(=O)NCc1ccco1)CCCC2)c1ccc2c(c1)OCO2`, the AC50 is, setting by setting: under setting [1], 0.00651 µM [rising, full curve, poor fit]; under setting [2], 0.82 µM [rising, partial curve, poor fit].
`O=C(NNC(=O)c1cccnc1)NC1CCCCC1`: the cell number change was 39.6%. Besides, under setting [1], the AC50 is 8.2 µM [rising, partial curve, poor fit]. Moreover, the AC50 under setting [2] was 29.1 µM [rising, single point].
In the case of `Cc1ccc(N2C(=O)CC(Sc3cccs3)C2=O)cc1` (stereo not given), the cell number change is -6.74%. Further, the AC50 under setting [2] is 6.51 µM [falling, single point].
In the case of `COc1ccc(OC)c(S(=O)(=O)N2CCC(C(=O)NCCc3ccc(OC)c(OC)c3)CC2)c1`, the cell number change worked out at 85.8%. Moreover, the AC50 under setting [1] is 18.4 µM [rising, single point]. Further, the AC50 under setting [2] was 23.1 µM [rising, single point].
As for `CC(C)COc1ccc(C(=O)Nc2ccc(N3CCOCC3)cc2N2CCOCC2)cc1`, the cell number change was -51.5%. Under setting [1], the AC50 is 5.01 µM [falling, partial curve]. The AC50 under setting [2] was 10 µM [falling, partial curve].

(Values after PubChem BioAssay AID2685 (National Center for Advancing Translational Sciences (NCATS), 2010).)
